No constants are given. Whether binding was seen depends on the method and setting. In cells and extracts the contact can be indirect. Some entries that bind do so weakly or less than the wild type.
Tests used:
[1] = target: T1, endogenous REST (human (endogenous in SH-SY5Y)) (UniProt Q13127); assay: proximity ligation; Duolink in situ PLA in fixed SH-SY5Y cells with primary antibodies against USP3 and REST; single antibodies as controls
T1 sequence: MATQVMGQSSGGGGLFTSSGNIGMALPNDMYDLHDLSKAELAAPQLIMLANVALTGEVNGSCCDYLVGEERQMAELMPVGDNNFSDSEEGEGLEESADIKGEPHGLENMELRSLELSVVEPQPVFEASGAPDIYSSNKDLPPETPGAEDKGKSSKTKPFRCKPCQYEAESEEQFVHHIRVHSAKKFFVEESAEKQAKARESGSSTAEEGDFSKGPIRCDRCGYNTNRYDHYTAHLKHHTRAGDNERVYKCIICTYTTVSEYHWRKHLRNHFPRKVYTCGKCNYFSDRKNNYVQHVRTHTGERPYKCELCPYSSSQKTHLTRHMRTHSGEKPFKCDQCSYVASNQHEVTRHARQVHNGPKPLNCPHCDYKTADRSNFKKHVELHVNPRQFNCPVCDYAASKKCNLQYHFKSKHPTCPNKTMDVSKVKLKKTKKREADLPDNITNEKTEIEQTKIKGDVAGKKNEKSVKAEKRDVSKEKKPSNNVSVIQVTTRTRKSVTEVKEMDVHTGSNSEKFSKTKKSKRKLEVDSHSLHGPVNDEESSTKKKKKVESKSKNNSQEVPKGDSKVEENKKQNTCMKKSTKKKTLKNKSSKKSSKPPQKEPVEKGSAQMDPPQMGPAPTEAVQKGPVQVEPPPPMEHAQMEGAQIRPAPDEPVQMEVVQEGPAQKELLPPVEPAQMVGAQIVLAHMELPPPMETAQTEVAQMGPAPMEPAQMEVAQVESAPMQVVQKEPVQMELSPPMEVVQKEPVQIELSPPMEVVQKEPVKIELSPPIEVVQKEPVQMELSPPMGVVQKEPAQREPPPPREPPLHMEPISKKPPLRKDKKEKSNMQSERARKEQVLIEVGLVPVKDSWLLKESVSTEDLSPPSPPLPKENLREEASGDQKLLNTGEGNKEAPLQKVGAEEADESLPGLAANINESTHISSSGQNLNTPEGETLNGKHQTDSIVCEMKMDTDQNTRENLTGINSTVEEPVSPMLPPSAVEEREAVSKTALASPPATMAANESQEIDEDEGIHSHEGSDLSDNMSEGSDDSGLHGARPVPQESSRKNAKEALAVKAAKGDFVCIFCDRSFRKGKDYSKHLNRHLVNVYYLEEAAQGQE

[2] = target: T1, endogenous REST (human (endogenous in SH-SY5Y)); assay: co-IP; endogenous proteins in SH-SY5Y lysate; immunoprecipitated with antibodies against USP3 or REST, western blot; IP lysis buffer 25 mM Tris-HCl pH 7.4, 150 mM NaCl, 1 mM EDTA, 1% NP-40, 5% glycerol; 4 °C overnight

binding [1]: binds
binding [2]: binds
B1: endogenous USP3 (enzyme, UniProt Q9Y6I4 1-520)
chain: MECPHLSSSVCIAPDSAKFPNGSPSSWCCSVCRSNKSPWVCLTCSSVHCGRYVNGHAKKHYEDAQVPLTNHKKSEKQDKVQHTVCMDCSSYSTYCYRCDDFVVNDTKLGLVQKVREHLQNLENSAFTADRHKKRKLLENSTLNSKLLKVNGSTTAICATGLRNLGNTCFMNAILQSLSNIEQFCCYFKELPAVELRNGKTAGRRTYHTRSQGDNNVSLVEEFRKTLCALWQGSQTAFSPESLFYVVWKIMPNFRGYQQQDAHEFMRYLLDHLHLELQGGFNGVSRSAILQENSTLSASNKCCINGASTVVTAIFGGILQNEVNCLICGTESRKFDPFLDLSLDIPSQFRSKRSKNQENGPVCSLRDCLRSFTDLEELDETELYMCHKCKKKQKSTKKFWIQKLPKVLCLHLKRFHWTAYLRNKVDTYVEFPLRGLDMKCYLLEPENSGPESCLYDLAAVVVHHGSGVGSGHYTAYATHEGRWFHFNDSTVTLTDEETVVKAKAYILFYVEHQAKAGSDKL
